The source of these data is article PMC10602860.

Amino acid sequences for entries named in this document (tags omitted).
UniProt P46959: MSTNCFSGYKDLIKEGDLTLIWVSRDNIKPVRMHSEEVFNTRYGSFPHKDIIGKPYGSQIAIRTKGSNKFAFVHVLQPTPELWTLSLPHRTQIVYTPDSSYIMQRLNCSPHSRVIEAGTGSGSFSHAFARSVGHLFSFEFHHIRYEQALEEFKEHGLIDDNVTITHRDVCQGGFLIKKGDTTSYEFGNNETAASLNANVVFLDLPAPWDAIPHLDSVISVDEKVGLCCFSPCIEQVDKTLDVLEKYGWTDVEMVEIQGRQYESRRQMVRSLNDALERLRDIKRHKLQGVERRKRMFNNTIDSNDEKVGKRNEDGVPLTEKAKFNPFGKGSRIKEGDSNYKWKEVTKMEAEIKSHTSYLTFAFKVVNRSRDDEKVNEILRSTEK

Results are given in words; binding and its absence hold for the method and conditions named. Some binding calls cover weakened binding; strength is not graded here.

The assay concerns the target T1, yeast Trm6 (subunit of the Trm6/Trm61 heterodimer) (S. cerevisiae) (UniProt P41814).
T1 sequence: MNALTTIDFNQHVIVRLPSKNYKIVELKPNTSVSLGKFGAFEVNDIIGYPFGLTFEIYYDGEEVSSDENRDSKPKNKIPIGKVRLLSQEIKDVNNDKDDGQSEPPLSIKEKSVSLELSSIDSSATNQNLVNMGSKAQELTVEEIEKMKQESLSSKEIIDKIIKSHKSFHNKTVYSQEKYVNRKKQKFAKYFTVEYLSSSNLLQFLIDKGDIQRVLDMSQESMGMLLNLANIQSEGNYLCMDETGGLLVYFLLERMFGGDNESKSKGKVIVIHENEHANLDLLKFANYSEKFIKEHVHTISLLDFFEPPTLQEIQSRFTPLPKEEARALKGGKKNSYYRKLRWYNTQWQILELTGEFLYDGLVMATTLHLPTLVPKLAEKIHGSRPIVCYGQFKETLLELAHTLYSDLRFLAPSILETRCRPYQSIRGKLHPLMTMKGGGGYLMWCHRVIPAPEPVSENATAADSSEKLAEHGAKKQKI
Briefly: co-purification (Ni-NTA, then hydrophobic and/or size exclusion chromatography); Trm6 and Trm61 co-expressed in E. coli from pETDuet-1, His6 tag on Trm6 only; lysate supernatant loaded on a Ni-NTA column, imidazole gradient, further chromatography at 4°C.

As to “yeast Trm61 (subunit of the Trm6/Trm61 heterodimer) (from UniProt P46959 1-383) (enzyme)”, the binding entry is reported as “binds”.
